PubChem BioAssay AID2417 (National Center for Advancing Translational Sciences (NCATS), 2010)
The whole screen tested about 140,000 compounds, of which about 4,300 (3.1%) were called active. The shares of active, inactive and inconclusive entries below differ from those in the screen.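 Rule for the calls: active = readout at or below -70, meaning at least 70% loss of cells showing the perinucleolar compartment, a nuclear body marking cancer cells; inconclusive = readout between -30 and a set limit; inactive = the rest.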

test: High Content Assay for Compounds that inhibit the Assembly of the Perinucleolar Compartment; conditions: PC3M PTB-GFP, PNC prevalence imaging, 16 h; at 10 µM; hits give low values;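 note: plate controls were DMSO wells for no effect and camptothecin positive control wells for full effect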
How it was run: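 Compounds are pinned in duplicate onto adhered PC3M cells stably expressing GFP-tagged PTB and incubated 16 h at 37 C. Cells are then fixed, nuclei stained with Hoechst, and PNC-positive cells counted.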

| Compound | activity change (PNC), negative = inhibition |
| --- | --- |
| c1ccc(-c2nc3cc4ccccc4cc3[nH]2)nc1 | inactive: 23.7% |
| O=C(CN1C(=O)COc2ccccc21)NCc1ccc(C(=O)O)cc1 | inconclusive: -60.2% |
| CCN(CC)c1ccc(/C=N/n2c(C)cc(C)cc2=O)cc1 | active: -123% |
| CCc1ccc2oc(-c3cc(N)cc(C)c3O)nc2c1 | active: -107% |
| O=C(COC(=O)c1ccc(Cl)c(S(=O)(=O)N2CCCC2)c1)NC1CCCC1 | inconclusive: -41.7% |
| CC(C)(C)Cc1nnc(NS(=O)(=O)c2ccc(F)cc2)s1 | active: -82.5% |
| O=C(COC(=O)c1ncc(Cl)c(Cl)c1Cl)Nc1ccccc1OC(F)F | inconclusive: -62.2% |
| O=C1NN=C(c2ccc(Cl)cc2)CC1c1cccc(Cl)c1 (stereo not drawn) | inconclusive: -48% |
| COc1cc(-c2nnn(CC(=O)NC3CCS(=O)(=O)C3)n2)ccc1OCc1ccccc1 (stereo not drawn) | inconclusive: -46.3% |
| CC1(C)Cc2c(c(-c3ccco3)nc3sc4c(NCCN5CCOCC5)ncnc4c23)CO1 | inconclusive: -46.5% |
| N#CCCn1cnc2ccccc21 | inconclusive: -55.1% |
| Cc1cccc(C(=O)N[C@H](C(=O)Nc2nccs2)C(C)C)c1 | inactive: 9.25% |
| CCn1cc(Cl)c(C(=O)NNC(=O)CCn2cc([N+](=O)[O-])cn2)n1 | inconclusive: -44.9% |
| CC1(C)CC2(C)Nc3ccccc3N2C(=S)N1 (stereo not drawn) | inconclusive: -53.7% |
| CC(C)C(NC(=O)c1ccccc1)C(=O)NCc1ccccn1 (stereo not drawn) | inconclusive: -33.8% |
| O=C(Nc1ccc(-c2nnc3n2CCCCC3)cc1)c1cc2ccccc2o1 | inactive: -7.4% |
| CCOc1ccccc1/C=N/NC(=O)c1cccc(Cl)c1 | inconclusive: -57.4% |
| Cc1ccc(CC(=O)NCC(C)C)cc1 | inconclusive: -33.5% |
| CCCc1cc(C(=O)OC)c(NC(=O)c2cc(C)on2)s1 | active: -87.3% |
| Cc1ccc(C)c(N=C2NC(=O)CS2)c1 | inconclusive: -35.3% |
| CCCCOC(=O)CSc1nc(N)c(C#N)c(-c2ccc(OCC)cc2)c1C#N | inconclusive: -36.4% |
| CCCc1cc(=O)[nH]c(SCC(=O)N2CCN(S(=O)(=O)c3ccc(C)cc3C)CC2)n1 | inactive: -20% |
| CC1Cc2ccccc2N1C(=O)CSc1nnc(CNc2ccccc2)o1 (stereo not drawn) | inconclusive: -75.6% |
| COc1ccc(C(=O)NNC(=O)c2ccccn2)cc1 | inactive: -17.7% |

| Compound | activity change (PNC), negative = inhibition |
| --- | --- |
| CC1(C)CC(=O)C=C(NCC2CCCO2)C1 (stereo not drawn) | inactive: 23% |
| O=C(O)c1ccc(/C=N/NC(=O)c2ccc(Br)cc2)cc1 | inactive: -18.4% |
| Cc1c(NC(=O)C2CCCNC2=O)c(=O)n(-c2ccccc2)n1C (stereo not drawn) | inactive: 36.2% |
| Cc1ccc(C(=O)/C=C\C(=O)c2ccc(C)cc2)cc1 | inactive: -9.72% |
| CCCNC(=O)COC(=O)CCC(=O)c1ccc(F)cc1 | inconclusive: -52.9% |
| O=C(C1=C(O)C(=O)N(c2ncccn2)C1c1cccc(Cl)c1)c1ccco1 (stereo not drawn) | inactive: 21.1% |
| COC(CN(C(=O)CCl)C(C(=O)NC1CCCCC1)c1ccccc1C)OC (stereo not drawn) | inconclusive: -58.2% |
| Cc1cccc(OCCNC(=S)NC(=O)c2cccnc2)c1 | inactive: 17.2% |
| O=C(Nc1nnc(SCC(=O)N2CCOCC2)s1)c1ccccc1 | active: -89.3% |
| CC(=O)Nc1ccc(S(=O)(=O)NCC2CCC(C(=O)NCCC3=CCCCC3)CC2)cc1 (stereo not drawn) | inconclusive: -32.6% |
| Cc1ccc(CC2CC(=O)N(c3ccncc3)C2=O)cc1 (stereo not drawn) | inactive: 25.5% |
| COC(=O)C(O)(CC(=O)Nc1cccc(SC)c1)C(F)(F)F (stereo not drawn) | inconclusive: -57.2% |
| O=C(c1ccc2c(c1)OCCO2)C1CCN(C(=O)c2ccc(F)cc2)CC1 | inconclusive: -78.7% |
| Cc1nc2c(C(=O)NCc3cccs3)cnn2c(C)c1Cc1ccc(F)cc1 | inconclusive: -36.8% |
| CC(=O)/C(=N/Nc1cccc(Cl)c1)N1CCOCC1 | inconclusive: -48.3% |
| COC(=O)N/N=C/c1cn(Cc2ccc(Cl)cc2Cl)c2ccccc12 | inconclusive: -47% |
| CCn1ncc(Br)c1C(=O)Nc1ccc(F)cc1F | inactive: 35.8% |
| CCC(=O)NC(c1cccs1)c1cc([N+](=O)[O-])c2cccnc2c1O (stereo not drawn) | inactive: 43.6% |
| N#Cc1cn(CC(=O)O)c2ccccc12 | inconclusive: -39.7% |
| Cc1cc(NC(=O)c2cc(-c3ccccc3)on2)n(-c2ccccc2)n1 | inconclusive: -59.7% |
| Oc1ccc(-c2nc3c4c(ncn3n2)-c2ccccc2CC42CCCC2)cc1 | inactive: -3.49% |
| O=C(Nc1cccc(F)c1)c1ccc(CSc2ccccc2)o1 | inconclusive: -39.2% |
| CC(NC(=S)Nc1ccccc1Cl)C(c1ccccc1)N1CCOCC1 (stereo not drawn) | inactive: 14.9% |
| CC(=O)Nc1nc(NC(=O)/C=C/c2ccccc2)n(-c2ccccc2)n1 | inactive: -10.6% |

As a short view, 4 of the compounds above.

| Compound | activity change (PNC), negative = inhibition |
| --- | --- |
| CC1(C)CC(=O)C=C(NCC2CCCO2)C1 (stereo not drawn) | inactive: 23% |
| O=C(O)c1ccc(/C=N/NC(=O)c2ccc(Br)cc2)cc1 | inactive: -18.4% |
| Cc1c(NC(=O)C2CCCNC2=O)c(=O)n(-c2ccccc2)n1C (stereo not drawn) | inactive: 36.2% |
| Cc1ccc(C(=O)/C=C\C(=O)c2ccc(C)cc2)cc1 | inactive: -9.72% |

The listing continues.

| Compound | activity change (PNC), negative = inhibition |
| --- | --- |
| CC(C)[C@H](NC(=O)Nc1ccccc1F)C(=O)O | inconclusive: -32.5% |
| CC1(c2ccc3c(c2)OCO3)NC(=O)N(CC(=O)Nc2ccc(N3CCOCC3)cc2)C1=O (stereo not drawn) | inconclusive: -67.9% |
| CCc1nn(-c2ccccc2)c2c1-c1cc(OC)c(OC)cc1C1(N2)C(=O)Nc2ccccc21 (stereo not drawn) | inconclusive: -60.2% |
| CCN1CCCC1CNC(=O)C1CCCN(S(=O)(=O)c2cccc3nsnc23)C1 (stereo not drawn) | inconclusive: -61.1% |
| CCn1cnc2scc(-c3ccccc3)c2c1=O | active: -107% |
| Clc1ncnc2scc(-c3ccccc3)c12 | inactive: -7.95% |
| CCN1CCN(CCCNC(=O)Cn2cc3c(n2)CCCC3)CC1 | inconclusive: -39.8% |
| O=[N+]([O-])/C(C(Cl)=C(Cl)Cl)=C(\Nc1ccc(F)cc1)n1cncn1 | inactive: 0.0576% |
| COC(=O)c1c2c(nc3ccccc13)CCC2 | inconclusive: -57% |
| C/C(CC(=O)Nc1ccc(Cl)cc1Cl)=N\NC(=O)c1ccco1 | inconclusive: -32.5% |
| Cn1c(=NC(=O)c2ccc(S(=O)(=O)N3CCCc4ccccc43)cc2)sc2cc(S(C)(=O)=O)ccc21 | inconclusive: -35.9% |
| O=C(CC(O)(C(F)(F)F)C(F)(F)F)Nc1ccc(Cl)c(Cl)c1 | inconclusive: -75% |
| CN(C)CCCNC(=O)C1CCNCC1 | inactive: 17.4% |
| Cc1ccc(C(=O)c2coc3ccc(O)c(Cl)c23)cc1 | inactive: -13.2% |
| COc1cc(/C=N/n2cnnc2)ccc1OCc1ccc(C)cc1 | inconclusive: -66.2% |
| O=C(CSc1nc2ccccc2c(=O)n1-c1ccccc1)N1CCc2ccccc21 | inconclusive: -50.6% |
| Cc1ccc(-c2csc(NC(=O)CSc3nc4ccccc4o3)n2)cc1 | inconclusive: -42.6% |
| O=C(NCc1cccnc1)C(=O)NCC1OCCCN1S(=O)(=O)c1ccccc1 (stereo not drawn) | inactive: -13.2% |
| COCCCNC(=O)C12CCC(C)(C(=O)C1)C2(C)C (stereo not drawn) | inconclusive: -33.5% |
| COc1ccc2c(Cl)c(C(=O)N/N=C/c3ccc4c(c3)OCO4)sc2c1 | inactive: 53% |
| COc1ccc(C(=O)COC(=O)CNS(=O)(=O)c2ccc(C)cc2)cc1 | inactive: -21.9% |
| O=C(CSc1nnc(CNC(=O)c2cccs2)o1)NC1CCCCC1 | inconclusive: -34.1% |
| CCOc1ccc(S(=O)(=O)n2nc(C)cc2C)c2ccccc12 | inconclusive: -51% |
| COc1cccc(-c2nc(CSCC(=O)NCC3CCCO3)c(C)o2)c1 (stereo not drawn) | inconclusive: -51.4% |

| Compound | activity change (PNC), negative = inhibition |
| --- | --- |
| CCCCC(O)(CCCC)C(=O)NN(C(=O)OCC)c1ccccc1 | inactive: 7.63% |
| CCOC(=O)c1ccccc1NS(=O)(=O)c1ccc(OCC)cc1 | inactive: 9.41% |
| CCOc1ccc(S(=O)(=O)N2CCCCCC2)cc1 | inconclusive: -47.1% |
| CC(C)C(C(=O)O)N1C(=O)/C(=C/c2cccn2C)SC1=S (stereo not drawn) | inactive: -8.73% |
| Cc1ccc(C(=O)CCC(=O)Nc2cccnc2)cc1C | inconclusive: -50.4% |
| Cc1ccc(-c2csc3ncnc(N4CCN(C(=O)c5ccccc5)CC4)c23)cc1 | inconclusive: -49.9% |
| Cc1ccc(S(=O)(=O)Oc2ccccc2/C=N/NC(=O)c2c(Cl)cnn2C)cc1 | inconclusive: -63.8% |
| COc1ccc(CNC(=O)CNS(=O)(=O)c2ccc(Cl)cc2)cc1 | inconclusive: -31.5% |
| CC(/C=C1\SC(=O)N(CC(=O)Nc2cccc(O)c2)C1=O)=C\c1ccccc1 | inactive: -4.2% |
| Cc1cccc(NC(=S)N(CCN(C)C)Cc2cc3cccc(C)c3[nH]c2=O)c1 | active: -100% |
| COc1cccc(NC(=O)CSc2nnc(-c3cc(-c4ccccn4)nc4ccccc34)o2)c1 | inconclusive: -41% |
| COC(=O)Cc1csc(Nc2ccccc2)n1 | inconclusive: -51.9% |
| Cc1ccc(SCCC(=O)Nc2c(C)n(C)n(-c3ccccc3)c2=O)cc1 | inconclusive: -39% |
| Cc1c(/C=N/n2cnnc2)c2ccccc2n1C | inconclusive: -44% |
| N#Cc1c(Cl)c(Cl)c2nnc(-c3ccc(Br)cc3)n2c1Cl | inactive: 41.7% |
| Nc1c(S(=O)(=O)c2cc(Cl)ccc2Cl)c2nc3ccccc3nc2n1CCN1CCOCC1 | inconclusive: -44.5% |
| O=C(NC1c2ccccc2-c2ccccc21)c1ccco1 | inconclusive: -49.3% |
| CC(C)c1c(O)nc(SCCN(C)C)[nH]c1=O | active: -86.9% |
| Cc1ccc(S(=O)(=O)N/N=C\c2ccc(Cl)c([N+](=O)[O-])c2)cc1 | inactive: -15.9% |
| CCC(Oc1ccccc1)C(=O)Nc1ccc(S(=O)(=O)N2CCOCC2)cc1 (stereo not drawn) | inconclusive: -42.7% |
| N#Cc1c(NC(=O)CSc2nc3c(c(C(F)(F)F)n2)CCc2ccccc2-3)sc2c1CCCC2 | inconclusive: -47.1% |
